Measurements: publication PMC11042806
Results are given in words; binding and its absence hold for the method and conditions named. Binding seen in cells or lysates may run through a third protein. Some entries that bind do so weakly or less than the wild type. Tags and fused reporters may be left off the sequences shown.

Target: T1, Foxp3 (untagged), Q99JB6
T1 chain: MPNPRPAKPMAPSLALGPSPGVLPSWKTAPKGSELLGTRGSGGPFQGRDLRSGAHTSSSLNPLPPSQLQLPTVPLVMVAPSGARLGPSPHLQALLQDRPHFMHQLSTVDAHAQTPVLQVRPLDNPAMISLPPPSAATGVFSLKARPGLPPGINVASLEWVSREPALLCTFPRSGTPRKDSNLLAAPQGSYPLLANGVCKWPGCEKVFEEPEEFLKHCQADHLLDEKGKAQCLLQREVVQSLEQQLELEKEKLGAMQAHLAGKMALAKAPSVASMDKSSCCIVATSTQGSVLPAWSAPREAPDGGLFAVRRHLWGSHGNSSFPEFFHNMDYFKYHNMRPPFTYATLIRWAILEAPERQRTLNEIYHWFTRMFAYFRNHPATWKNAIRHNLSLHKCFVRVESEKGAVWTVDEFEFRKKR
Assay: co-IP; HEK293T cells co-transfected with Flag-Ik1 and untagged Foxp3, lysate after 48 hr; immunoprecipitation (legend: Foxp3-immunoprecipitated extracts; methods: Flag IP kit), immunoblot for Foxp3 and FLAG
Settings: remark: other sources report otherwise

B1: FLAG-tagged full-length Ikaros (Ik1), Q03267 1-517 (protein)
chain: MDVDEGQDMSQVSGKESPPVSDTPDEGDEPMPVPEDLSTTSGAQQNSKSDRGMGSNVKVETQSDEENGRACEMNGEECAEDLRMLDASGEKMNGSHRDQGSSALSGVGGIRLPNGKLKCDICGIVCIGPNVLMVHKRSHTERPFQCNQCGASFTQKGNLLRHIKLHSGEKPFKCHLCNYACRRRDALTGHLRTHSVGKPHKCGYCGRSYKQRSSLEEHKERCHNYLESMGLPGVCPVIKEETNHNEMAEDLCKIGAERSLVLDRLASNVAKRKSSMPQKFLGDKCLSDMPYDSANYEKEDMMTSHVMDQAINNAINYLGAESLRPLVQTPPGSSEVVPVISSMYQLHKPPSDGPPRSNHSAQDAVDNLLLLSKAKSVSSEREASPSNSCQDSTDTESNAEEQRSGLIYLTNHINPHARNGLALKEEQRAYEVLRAASENSQDAFRVVSTSGEQLKVYKCEHCRVLFLDHVMYTIHMGCHGCHGFRDPFECNMCGYHSQDRYEFSSHITRGEHRYHLS
  binding: binds
